These results are taken from PubChem BioAssay AID1347426 (Functional Genomics Laboratory (NCATS/FGL), 2020).

The campaign covered roughly 31,000 sequences. About 1,400 (4.5%) were called active.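 Rule for the calls: active = median seed-adjusted z-score above 1 or below -1; inactive = the rest.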 The list shows a part of the results.

The assay can be described thus: Novel Modifiers of Survival Motor Neuron (SMN) Protein: Gene Identification via Genome-wide siRNA Screen.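 Note: luminescence tracks full-length SMN protein made from the SMN2 reporter.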 The settings on record: HEK293T SMN2-luciferase reporter, siRNA knockdown, 72 h; actives lie on both sides. In outline: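 Each of three siRNAs per gene is reverse-transfected (1 pmol) into reporter HEK293T cells whose luciferase output tracks SMN protein level. After 72 h culture, ONE-Glo luminescence is control-normalized, log10-transformed and MAD-standardized; Common Seed Analysis deprioritizes seed-driven hits.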
On to GGGUUGGUUUGGGCCUGAATT against SOX12, for which the median seed-adjusted z-score was inactive: 0.478.

In the case of GAAUGACCUGGGAGACAAATT against TXNDC5, the median seed-adjusted z-score is inactive: -0.753.

In the case of GCUUCUCGAUGGACAGGAATT against HDGF2, the median seed-adjusted z-score is inactive: 0.

Regarding CAGCAUCACAAGAUACAUATT against ZNF250, the median seed-adjusted z-score was inactive: -0.00985.

In the case of GCACGUCUCUACUUCAUCATT against EXTL2, the median seed-adjusted z-score was inactive: -0.0568.

On to GCUCCAAGAAGACACCGUATT against SIN3B, for which the median seed-adjusted z-score is inactive: 0.509.

On to GCAGUUGAGCUAUCACUAUTT against NFXL1, for which the median seed-adjusted z-score is inactive: 0.118.

As for GAAUUUCACAAAGCAAAGATT against TAAR1, the median seed-adjusted z-score was inactive: 0.0724.

Turning to GAAGUAAUUGAAAUCAUGATT against HNRNPA1L2, the median seed-adjusted z-score was inactive: 0.732.

As for GUUCGGCUUUGGGUAUCAATT against PLK3, the median seed-adjusted z-score is inactive: -0.116.

In the case of CGAACAGUCCAAGAAAUGUTT against GALNT12, the median seed-adjusted z-score was inactive: 0.188.

For CAGUGGAUAUCACAGGCUATT against THAP7, the median seed-adjusted z-score was inactive: -0.0317.

Take CAACAUCUAUGAUUGGAAUTT against RFXANK: the median seed-adjusted z-score was inactive: -0.0665.

Regarding CAUUCGGAAUAUCAACAAATT against GRLF1, the median seed-adjusted z-score is inactive: 0.0307.

GAAUCUGGGAUGUUAACCATT against IL1RN: the median seed-adjusted z-score was inactive: 0.283.

With GGAUAAAGAUGGUGAUAGATT against MIB1, the median seed-adjusted z-score is inactive: 0.

Turning to GACCCAUGAUUUACUGCUATT against PCDHB6, the median seed-adjusted z-score was inactive: 0.

As for CAUCCAAAAUUAGCCCGUUTT against TLR1, the median seed-adjusted z-score is inactive: 0.

With CAAUGUUUGUCUGGUCAUATT against ZDHHC2, the median seed-adjusted z-score is inactive: 0.133.

As to ACAUCUUGCUGCAUCAAGATT against GFOD2, the median seed-adjusted z-score is inactive: -0.0447.

In the case of GAGCGACGGCGAAACAAGATT against MEIS3, the median seed-adjusted z-score is inactive: 0.207.

Take GGAUACAGGAGAAAACGCATT against WWTR1: the median seed-adjusted z-score was inactive: -0.579.

GUAUCAAGAGAUUCACUAATT against USP39: the median seed-adjusted z-score is inactive: 0.821.

In the case of CCACCGAUUUGAUCCCAAATT against NAPSA, the median seed-adjusted z-score is inactive: -0.336.

On to CCUAAUCAAGUACAACAUATT against AP4E1, for which the median seed-adjusted z-score was inactive: 0.

For the sequence CAAGCACUAUCAUUGCGAATT against RPA1, the median seed-adjusted z-score was inactive: -0.27.

Turning to CAAUGGUAUUGCUACAUUUTT against ATRX, the median seed-adjusted z-score was inactive: -0.158.

Take CGCGCUUCGUAUUUCAGAATT against MUS81: the median seed-adjusted z-score is inactive: 0.

Turning to CAACAAGCGUAAGACCAAATT against SYTL5, the median seed-adjusted z-score is inactive: 0.192.

On to GACUGUGAUUGACAAGGGATT against ADAL, for which the median seed-adjusted z-score is inactive: 0.145.

As for GGACUGGACUUACGAUGAUTT against CHID1, the median seed-adjusted z-score is inactive: 0.199.

In the case of GCCGCAACGUGUUUCUGUUTT against CNR1, the median seed-adjusted z-score is inactive: 0.0359.

Consider GCAAGGAAAUCAAAGACGATT against ITLN1, for which the median seed-adjusted z-score was inactive: 0.23.

For the sequence CGAUUAUGGAACAACCUAUTT against SORCS1, the median seed-adjusted z-score was inactive: -0.123.

Consider GCAUGUCCAAUGUUCCAUATT against ACAT1, for which the median seed-adjusted z-score is inactive: -0.848.

For the sequence GCGGGAUCCUGAACCUGAATT against PLA2G2D, the median seed-adjusted z-score is inactive: 0.361.

Consider CGAUAUAUGUGAUAUGCGUTT against ZNF740, for which the median seed-adjusted z-score was inactive: -0.914.

With GAAGCAUGAUGGACAGGAUTT against ISOC1, the median seed-adjusted z-score was inactive: 0.104.

On to GAGUUUAACUACCUGGAGATT against SEMA6B, for which the median seed-adjusted z-score was inactive: 0.311.

Take GGACCGGCCUUUUCGAAAATT against SNRNP35: the median seed-adjusted z-score is inactive: 0.172.

CCAUCUUCGGCAUCCAUAATT against SLC16A2: the median seed-adjusted z-score is inactive: -0.302.

For ACAUUGUGAAGAUCGAAAATT against SLC14A2, the median seed-adjusted z-score was inactive: 0.00107.

On to GGACUGUUGGAAACUAUCATT against IKBKAP, for which the median seed-adjusted z-score is inactive: -0.0316.

For the sequence GCCUCAAAGUGUACAUCGATT against B3GNT8, the median seed-adjusted z-score was inactive: 0.236.

In the case of GAUUGGAAUUAUUGAUUGATT against VAMP7, the median seed-adjusted z-score is inactive: -0.00527.

For GAAGUUCAUACUAAGCGUATT against TPR, the median seed-adjusted z-score is active: -1.03.

For the sequence CCAUUUCGCAAAGCUCAGATT against IFNAR1, the median seed-adjusted z-score was inactive: 0.0327.

Consider AGAUGAUCCUGUCCAGUGATT against PRKD2, for which the median seed-adjusted z-score is inactive: 0.00493.

As for CAUGUACACCAUACAUAGATT against CHST3, the median seed-adjusted z-score is inactive: 0.319.

Consider CAAGUCAGCUGGUUCGGUATT against IDE, for which the median seed-adjusted z-score was inactive: -0.081.

Turning to CUACCAGAACUAUUACGAUTT against PSTPIP1, the median seed-adjusted z-score is inactive: -0.342.

For the sequence UAACAACAGUGAGAGAGCATT against UQCRH, the median seed-adjusted z-score is inactive: 0.458.

As for CGCUGCCUGUACCACCAUUTT against WFDC5, the median seed-adjusted z-score is inactive: 0.

With CAUAUAUGUUUCUACGAAATT against PDK3, the median seed-adjusted z-score is inactive: 0.232.

As for GGCUGAUGUUGAUCUGCGATT against GRLF1, the median seed-adjusted z-score was inactive: 0.0307.

With GCCUUUGACCUGUCAGUGUTT against ASMT, the median seed-adjusted z-score is inactive: -0.322.

With CAUCUGUUGAGUUGUAAAUTT against NDUFC1, the median seed-adjusted z-score was inactive: 0.

For the sequence GGAUCCAAGCAUUCGAAUATT against SLC4A10, the median seed-adjusted z-score was inactive: 0.026.

For the sequence CCAGACUGCUAGAACAAGATT against OXNAD1, the median seed-adjusted z-score is inactive: 0.36.

Consider GGGUCACAGUGAAGCAUCUTT against RRBP1, for which the median seed-adjusted z-score is inactive: -0.254.

Consider GACUGGUCCUGUUAAAGAATT against GATAD2B, for which the median seed-adjusted z-score is inactive: 0.218.

On to GCAUCCGAGAUGUGACUAATT against DIS3, for which the median seed-adjusted z-score was inactive: 0.266.

On to GAAAACUACUUCAACUAAATT against PCDH17, for which the median seed-adjusted z-score is inactive: 0.451.

On to GACGAGAAGAUGUUAGUAATT against PKN2, for which the median seed-adjusted z-score is inactive: 0.383.

As to CAUCAAUCCUCAUCAAGGATT against SLC9A9, the median seed-adjusted z-score was inactive: 0.143.

With GAGACCAAAUCAACAAUGATT against 3-Sep, the median seed-adjusted z-score was inactive: 0.0683.

For GCUCAAAGGUCUCACCUGCTT against SLC35A2, the median seed-adjusted z-score is active: 1.06.

GCGAUGUUCAGAUACUAGATT against ACADM: the median seed-adjusted z-score was inactive: 0.127.

As to GAUUGAAGUUAACAAUGCATT against UBA6, the median seed-adjusted z-score was inactive: 0.0251.
